# No constants are given. Whether binding was seen depends on the method and setting. In cells and extracts the contact can be indirect. A yes stands for co-enrichment or nearness to the bait. Other partners may have been found.
# Protein sequences, listed by entry. Tags and fused reporters are not part of them. Residues count along the entry.
# UniProt O60260: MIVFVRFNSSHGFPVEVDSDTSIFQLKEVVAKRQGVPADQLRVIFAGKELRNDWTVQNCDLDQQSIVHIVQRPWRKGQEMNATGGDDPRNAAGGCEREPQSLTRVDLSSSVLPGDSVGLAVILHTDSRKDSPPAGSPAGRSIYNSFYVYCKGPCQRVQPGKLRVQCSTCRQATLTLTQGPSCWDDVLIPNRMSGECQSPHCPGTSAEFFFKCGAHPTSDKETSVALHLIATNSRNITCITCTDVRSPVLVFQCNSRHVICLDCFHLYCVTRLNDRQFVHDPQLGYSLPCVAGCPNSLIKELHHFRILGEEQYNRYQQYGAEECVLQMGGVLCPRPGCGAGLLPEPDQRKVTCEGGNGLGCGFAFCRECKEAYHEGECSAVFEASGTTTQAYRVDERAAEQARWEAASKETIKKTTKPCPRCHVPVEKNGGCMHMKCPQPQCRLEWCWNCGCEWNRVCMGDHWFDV
# UniProt P25685: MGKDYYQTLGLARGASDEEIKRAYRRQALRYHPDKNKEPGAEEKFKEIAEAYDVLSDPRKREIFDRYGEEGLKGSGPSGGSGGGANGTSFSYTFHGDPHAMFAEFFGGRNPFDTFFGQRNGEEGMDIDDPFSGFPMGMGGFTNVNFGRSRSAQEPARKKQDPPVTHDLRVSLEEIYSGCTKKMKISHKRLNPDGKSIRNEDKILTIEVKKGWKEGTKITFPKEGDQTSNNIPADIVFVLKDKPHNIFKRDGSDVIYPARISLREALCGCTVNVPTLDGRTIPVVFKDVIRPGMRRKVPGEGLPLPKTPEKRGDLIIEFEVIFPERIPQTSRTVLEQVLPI
# UniProt P33316, residues 70-252: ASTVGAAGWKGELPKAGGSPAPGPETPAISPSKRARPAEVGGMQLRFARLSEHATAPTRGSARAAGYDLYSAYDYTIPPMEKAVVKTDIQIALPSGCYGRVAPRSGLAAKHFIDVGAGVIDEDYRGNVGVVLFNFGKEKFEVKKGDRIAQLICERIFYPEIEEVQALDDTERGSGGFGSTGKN
# UniProt Q99700: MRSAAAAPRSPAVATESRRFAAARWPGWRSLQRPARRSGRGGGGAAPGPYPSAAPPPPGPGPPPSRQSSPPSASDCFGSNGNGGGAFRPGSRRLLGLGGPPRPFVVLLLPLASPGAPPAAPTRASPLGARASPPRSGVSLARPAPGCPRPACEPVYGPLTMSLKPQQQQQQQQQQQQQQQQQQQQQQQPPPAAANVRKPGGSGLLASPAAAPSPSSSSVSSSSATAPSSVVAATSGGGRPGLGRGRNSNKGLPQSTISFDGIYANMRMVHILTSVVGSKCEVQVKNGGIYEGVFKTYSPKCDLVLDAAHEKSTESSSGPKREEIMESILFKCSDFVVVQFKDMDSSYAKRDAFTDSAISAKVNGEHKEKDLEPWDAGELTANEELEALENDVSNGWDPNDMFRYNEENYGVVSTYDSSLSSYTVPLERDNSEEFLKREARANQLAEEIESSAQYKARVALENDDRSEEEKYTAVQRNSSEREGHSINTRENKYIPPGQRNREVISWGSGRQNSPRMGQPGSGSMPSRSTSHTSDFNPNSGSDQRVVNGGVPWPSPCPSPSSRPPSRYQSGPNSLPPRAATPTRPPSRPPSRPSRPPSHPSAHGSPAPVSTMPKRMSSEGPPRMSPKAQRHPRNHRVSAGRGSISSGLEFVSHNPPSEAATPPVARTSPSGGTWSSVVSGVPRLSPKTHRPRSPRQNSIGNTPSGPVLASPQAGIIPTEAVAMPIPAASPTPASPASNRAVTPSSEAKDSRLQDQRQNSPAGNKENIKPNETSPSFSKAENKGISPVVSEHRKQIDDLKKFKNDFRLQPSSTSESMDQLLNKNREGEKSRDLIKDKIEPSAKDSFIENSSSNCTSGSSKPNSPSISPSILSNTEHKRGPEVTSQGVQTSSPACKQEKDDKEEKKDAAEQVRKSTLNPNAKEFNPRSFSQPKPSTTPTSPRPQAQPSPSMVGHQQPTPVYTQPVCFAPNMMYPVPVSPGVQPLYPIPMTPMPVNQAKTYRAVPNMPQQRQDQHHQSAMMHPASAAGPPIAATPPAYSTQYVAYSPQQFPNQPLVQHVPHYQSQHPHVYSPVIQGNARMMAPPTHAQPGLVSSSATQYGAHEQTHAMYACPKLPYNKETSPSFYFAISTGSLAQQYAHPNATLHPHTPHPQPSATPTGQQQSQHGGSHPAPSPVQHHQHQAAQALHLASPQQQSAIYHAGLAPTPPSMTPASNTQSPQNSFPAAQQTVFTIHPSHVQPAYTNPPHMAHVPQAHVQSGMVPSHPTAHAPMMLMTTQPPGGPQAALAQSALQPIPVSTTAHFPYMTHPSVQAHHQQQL
# UniProt Q9NP77: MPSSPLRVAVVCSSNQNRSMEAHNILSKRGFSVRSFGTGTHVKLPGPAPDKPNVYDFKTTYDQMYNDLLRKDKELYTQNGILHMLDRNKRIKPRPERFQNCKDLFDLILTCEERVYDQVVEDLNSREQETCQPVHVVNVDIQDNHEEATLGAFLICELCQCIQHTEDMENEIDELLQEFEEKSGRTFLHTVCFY
# UniProt Q9H832: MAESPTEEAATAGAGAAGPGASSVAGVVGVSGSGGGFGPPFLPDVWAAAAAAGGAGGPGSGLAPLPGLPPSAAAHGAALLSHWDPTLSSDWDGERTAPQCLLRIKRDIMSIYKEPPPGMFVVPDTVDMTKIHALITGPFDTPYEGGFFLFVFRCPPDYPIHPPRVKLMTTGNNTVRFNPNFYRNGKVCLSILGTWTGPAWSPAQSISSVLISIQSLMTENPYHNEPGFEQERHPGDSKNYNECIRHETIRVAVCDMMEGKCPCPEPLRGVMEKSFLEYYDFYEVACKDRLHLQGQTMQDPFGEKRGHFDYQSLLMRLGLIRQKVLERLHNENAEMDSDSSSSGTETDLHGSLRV
# UniProt P11142: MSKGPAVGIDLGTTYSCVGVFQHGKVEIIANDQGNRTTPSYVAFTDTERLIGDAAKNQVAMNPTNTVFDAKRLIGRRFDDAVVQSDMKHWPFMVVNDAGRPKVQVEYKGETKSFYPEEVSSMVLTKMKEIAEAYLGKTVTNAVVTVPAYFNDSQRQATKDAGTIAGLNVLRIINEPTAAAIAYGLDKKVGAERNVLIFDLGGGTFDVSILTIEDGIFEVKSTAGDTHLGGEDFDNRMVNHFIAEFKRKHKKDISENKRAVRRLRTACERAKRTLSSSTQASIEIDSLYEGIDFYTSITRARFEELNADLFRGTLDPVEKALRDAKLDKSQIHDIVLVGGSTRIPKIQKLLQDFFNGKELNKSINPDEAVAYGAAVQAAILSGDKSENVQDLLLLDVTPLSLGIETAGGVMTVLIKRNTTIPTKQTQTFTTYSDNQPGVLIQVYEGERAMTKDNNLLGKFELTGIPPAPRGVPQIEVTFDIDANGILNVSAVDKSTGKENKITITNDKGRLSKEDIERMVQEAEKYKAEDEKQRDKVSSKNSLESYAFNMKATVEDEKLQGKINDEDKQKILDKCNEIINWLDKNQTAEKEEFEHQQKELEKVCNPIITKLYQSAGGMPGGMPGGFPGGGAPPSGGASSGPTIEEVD
# UniProt Q9Y6K9: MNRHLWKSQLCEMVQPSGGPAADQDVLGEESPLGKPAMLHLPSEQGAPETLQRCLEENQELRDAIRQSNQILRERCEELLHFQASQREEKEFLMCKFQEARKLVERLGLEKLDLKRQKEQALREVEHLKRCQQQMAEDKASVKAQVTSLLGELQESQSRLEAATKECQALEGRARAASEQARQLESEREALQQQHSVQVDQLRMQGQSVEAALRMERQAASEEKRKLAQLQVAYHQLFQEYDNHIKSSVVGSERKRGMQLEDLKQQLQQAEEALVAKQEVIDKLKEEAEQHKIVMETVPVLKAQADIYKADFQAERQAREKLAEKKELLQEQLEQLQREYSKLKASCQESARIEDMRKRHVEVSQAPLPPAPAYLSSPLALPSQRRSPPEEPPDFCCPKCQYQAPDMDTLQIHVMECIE
# UniProt Q12972: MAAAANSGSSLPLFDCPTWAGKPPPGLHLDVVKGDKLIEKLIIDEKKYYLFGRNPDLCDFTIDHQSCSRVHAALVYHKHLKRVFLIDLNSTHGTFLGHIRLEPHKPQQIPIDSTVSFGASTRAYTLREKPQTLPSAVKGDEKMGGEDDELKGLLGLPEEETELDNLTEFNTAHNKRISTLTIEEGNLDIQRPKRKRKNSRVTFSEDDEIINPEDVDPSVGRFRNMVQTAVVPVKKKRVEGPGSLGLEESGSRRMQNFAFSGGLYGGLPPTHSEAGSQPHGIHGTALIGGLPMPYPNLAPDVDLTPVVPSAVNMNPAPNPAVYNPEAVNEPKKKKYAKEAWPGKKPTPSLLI
# UniProt Q9UNE7: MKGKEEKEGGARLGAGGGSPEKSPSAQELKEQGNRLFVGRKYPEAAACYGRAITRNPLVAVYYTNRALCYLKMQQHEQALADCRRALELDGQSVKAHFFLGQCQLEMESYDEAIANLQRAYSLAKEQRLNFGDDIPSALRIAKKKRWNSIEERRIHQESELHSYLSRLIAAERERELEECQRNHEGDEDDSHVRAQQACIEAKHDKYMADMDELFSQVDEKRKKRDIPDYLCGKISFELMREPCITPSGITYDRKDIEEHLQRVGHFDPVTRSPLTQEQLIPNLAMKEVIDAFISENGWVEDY
# UniProt Q16186: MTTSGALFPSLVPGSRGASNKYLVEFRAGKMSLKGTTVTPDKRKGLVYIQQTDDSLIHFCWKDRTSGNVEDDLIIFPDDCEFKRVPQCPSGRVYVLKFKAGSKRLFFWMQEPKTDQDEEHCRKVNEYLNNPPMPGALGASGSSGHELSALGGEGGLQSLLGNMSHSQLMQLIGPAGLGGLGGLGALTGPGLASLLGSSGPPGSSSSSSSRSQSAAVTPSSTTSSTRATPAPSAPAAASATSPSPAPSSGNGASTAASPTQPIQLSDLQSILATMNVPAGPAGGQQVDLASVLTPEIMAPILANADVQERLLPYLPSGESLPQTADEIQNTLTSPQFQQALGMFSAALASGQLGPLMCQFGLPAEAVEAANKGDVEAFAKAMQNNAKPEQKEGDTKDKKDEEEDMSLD
# UniProt P63165, residues 1-97: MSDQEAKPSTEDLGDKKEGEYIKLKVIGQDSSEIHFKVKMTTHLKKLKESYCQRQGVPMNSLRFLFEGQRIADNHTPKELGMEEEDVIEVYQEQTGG
# UniProt P55036: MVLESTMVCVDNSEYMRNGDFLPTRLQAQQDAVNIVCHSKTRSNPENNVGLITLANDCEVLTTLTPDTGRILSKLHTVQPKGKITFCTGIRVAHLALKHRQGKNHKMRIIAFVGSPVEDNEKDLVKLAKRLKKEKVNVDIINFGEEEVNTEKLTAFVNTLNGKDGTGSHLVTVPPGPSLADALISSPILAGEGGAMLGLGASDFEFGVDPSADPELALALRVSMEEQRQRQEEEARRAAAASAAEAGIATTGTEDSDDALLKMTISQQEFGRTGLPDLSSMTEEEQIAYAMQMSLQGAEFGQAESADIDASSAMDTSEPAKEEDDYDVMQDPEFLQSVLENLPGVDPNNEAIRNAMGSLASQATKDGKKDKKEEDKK
# B1: PSPC1 (protein, UniProt Q8WXF1 1-523)
# chain: MMLRGNLKQVRIEKNPARLRALESAVGESEPAAAAAMALALAGEPAPPAPAPPEDHPDEEMGFTIDIKSFLKPGEKTYTQRCRLFVGNLPTDITEEDFKRLFERYGEPSEVFINRDRGFGFIRLESRTLAEIAKAELDGTILKSRPLRIRFATHGAALTVKNLSPVVSNELLEQAFSQFGPVEKAVVVVDDRGRATGKGFVEFAAKPPARKALERCGDGAFLLTTTPRPVIVEPMEQFDDEDGLPEKLMQKTQQYHKEREQPPRFAQPGTFEFEYASRWKALDEMEKQQREQVDRNIREAKEKLEAEMEAARHEHQLMLMRQDLMRRQEELRRLEELRNQELQKRKQIQLRHEEEHRRREEEMIRHREQEELRRQQEGFKPNYMENREQEMRMGDMGPRGAINMGDAFSPAPAGNQGPPPMMGMNMNNRATIPGPPMGPGPAMGPEGAANMGTPMMPDNGAVHNDRFPQGPPSQMGSPMGSRTGSETPQAPMSGVGPVSGGPGGFGRGSQGGNFEGPNKRRRY
# B2: EPS15 (protein, UniProt P42566 1-896)
# chain: MAAAAQLSLTQLSSGNPVYEKYYRQVDTGNTGRVLASDAAAFLKKSGLPDLILGKIWDLADTDGKGILNKQEFFVALRLVACAQNGLEVSLSSLNLAVPPPRFHDTSSPLLISGTSAAELPWAVKPEDKAKYDAIFDSLSPVNGFLSGDKVKPVLLNSKLPVDILGRVWELSDIDHDGMLDRDEFAVAMFLVYCALEKEPVPMSLPPALVPPSKRKTWVVSPAEKAKYDEIFLKTDKDMDGFVSGLEVREIFLKTGLPSTLLAHIWSLCDTKDCGKLSKDQFALAFHLISQKLIKGIDPPHVLTPEMIPPSDRASLQKNIIGSSPVADFSAIKELDTLNNEIVDLQREKNNVEQDLKEKEDTIKQRTSEVQDLQDEVQRENTNLQKLQAQKQQVQELLDELDEQKAQLEEQLKEVRKKCAEEAQLISSLKAELTSQESQISTYEEELAKAREELSRLQQETAELEESVESGKAQLEPLQQHLQDSQQEISSMQMKLMEMKDLENHNSQLNWCSSPHSILVNGATDYCSLSTSSSETANLNEHVEGQSNLESEPIHQESPARSSPELLPSGVTDENEVTTAVTEKVCSELDNNRHSKEEDPFNVDSSSLTGPVADTNLDFFQSDPFVGSDPFKDDPFGKIDPFGGDPFKGSDPFASDCFFRQSTDPFATSSTDPFSAANNSSITSVETLKHNDPFAPGGTVVAASDSATDPFASVFGNESFGGGFADFSTLSKVNNEDPFRSATSSSVSNVVITKNVFEETSVKSEDEPPALPPKIGTPTRPCPLPPGKRSINKLDSPDPFKLNDPFQPFPGNDSPKEKDPEIFCDPFTSATTTTNKEADPSNFANFSAYPSEEDMIEWAKRESEREEEQRLARLNQQEQEDLELAIALSKSEISEA
# B3: UCHL3 (protein, UniProt P15374 1-230)
# chain: MEGQRWLPLEANPEVTNQFLKQLGLHPNWQFVDVYGMDPELLSMVPRPVCAVLLLFPITEKYEVFRTEEEEKIKSQGQDVTSSVYFMKQTISNACGTIGLIHAIANNKDKMHFESGSTLKKFLEESVSMSPEERARYLENYDAIRVTHETSAHEGQTEAPSIDEKVDLHFIALVHVDGHLYELDGRKPFPINHGETSDETLLEDAIEVCKKFMERDPDELRFNAIALSAA
# B4: PSMD9 (protein, UniProt O00233 1-223)
# chain: MSDEEARQSGGSSQAGVVTVSDVQELMRRKEEIEAQIKANYDVLESQKGIGMNEPLVDCEGYPRSDVDLYQVRTARHNIICLQNDHKAVMKQVEEALHQLHARDKEKQARDMAEAHKEAMSRKLGQSESQGPPRAFAKVNSISPGSPASIAGLQVDDEIVEFGSVNTQNFQSLHNIGSVVQHSEGKPLNVTVIRRGEKHQLRLVPTRWAGKGLLGCNIIPLQR
# B5: SNW1 (protein, UniProt Q13573 1-536)
# chain: MALTSFLPAPTQLSQDQLEAEEKARSQRSRQTSLVSSRREPPPYGYRKGWIPRLLEDFGDGGAFPEIHVAQYPLDMGRKKKMSNALAIQVDSEGKIKYDAIARQGQSKDKVIYSKYTDLVPKEVMNADDPDLQRPDEEAIKEITEKTRVALEKSVSQKVAAAMPVRAADKLAPAQYIRYTPSQQGVAFNSGAKQRVIRMVEMQKDPMEPPRFKINKKIPRGPPSPPAPVMHSPSRKMTVKEQQEWKIPPCISNWKNAKGYTIPLDKRLAADGRGLQTVHINENFAKLAEALYIADRKAREAVEMRAQVERKMAQKEKEKHEEKLREMAQKARERRAGIKTHVEKEDGEARERDEIRHDRRKERQHDRNLSRAAPDKRSKLQRNENRDISEVIALGVPNPRTSNEVQYDQRLFNQSKGMDSGFAGGEDEIYNVYDQAWRGGKDMAQSIYRPSKNLDKDMYGDDLEARIKTNRFVPDKEFSGSDRRQRGREGPVQFEEDPFGLDKFLEEAKQHGGSKRPSDSSRPKEHEHEGKKRRKE
# Target: miniSOG fused to the N-terminus of Parkin (human (cDNA from HEK293T cells)) (UniProt O60260)
# Assay: proximity labelling; PDPL processing and Western blot of the pull-down; parental HEK293T cells compared with the N-terminal Parkin stable line
row,binding,Molecule
1,binds,DNAJB1 (from UniProt P25685 1-340)
2,binds,DUT (from UniProt P33316 70-252)

# Target: miniSOG fused to the N-terminus of Parkin (human (cDNA from HEK293T cells)) (UniProt O60260)
# Assay: proximity labelling; PDPL in living HEK293T cells stably expressing miniSOG fused to Parkin; 10 μM CCCP with probe 3 in HBSS 1 h at 37 °C, blue LED; biotin-PEG3-azide, NeutrAvidin enrichment, LC-MS/MS with label-free quantification against HEK293T
row,binding,Molecule
1,binds,TP53 (from UniProt P04637 1-393)
2,binds,ATXN2 (from UniProt Q99700 1-1313)
3,binds,Ssu72 (from UniProt Q9NP77 1-194)
4,binds,UBE2Z (from UniProt Q9H832 1-354)
5,binds,HSPA8 (from UniProt P11142 1-646)
6,binds,IKBKG (from UniProt Q9Y6K9 1-419)
7,binds,DNAJB1 (from UniProt P25685 1-340)
8,binds,PPP1R8 (from UniProt Q12972 1-351)
9,binds,STUB1 (from UniProt Q9UNE7 1-303)
10,binds,ARDM1 (from UniProt Q16186 1-407)
11,binds,DUT (from UniProt P33316 70-252)
12,binds,SUMO1 (from UniProt P63165 1-97)
13,binds,PSMD4 (from UniProt P55036 1-377)
14,binds,B1
15,binds,B2
16,binds,B3
17,binds,B4
18,binds,B5

# — paper PMC9392063
